Measurements reported in PubChem BioAssay AID686943 (Drosophila RNAi Screening Center, 2013)

- Screen: 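Search across the genome for regulators of signalling from receptor tyrosine kinase to ERK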 (primary screen)
- System: Drosophila S2R+ haemocyte-like cells expressing YFP-tagged ERK (Rolled)
- Reagents: long dsRNA against Drosophila genes
- Treatment: insulin stimulation versus unstimulated cells; dose and duration not given
- Read-out: 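Per-plate z-scores of phospho-ERK immunostaining normalised to YFP-tagged ERK, measured with and without insulin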
- Direction: replicate 1, z-score of dpERK with insulin: higher = more active ERK per ERK-YFP after insulin
The screen tested about 23,000 reagents; this is an unselected part of those with a known target gene and a result. 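Extra replicates exist only for a retested subset of genes; insulin dose and duration not given; both raised and lowered dpERK matter.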 Not all columns of the deposit are shown. The record does not give: the amount of reagent, the time to read-out.

mRpS18A (GeneID 326141) [DRSC14369] showed replicate 1, z-score of dpERK with insulin -0.76.
Depletion of bcn92 (GeneID 31186) [DRSC18741] came out at: replicate 1, z-score of dpERK with insulin -0.15.
For CG5639 (GeneID 43314) [DRSC15851], the values are replicate 1, z-score of dpERK with insulin 0.24.
With knock-down of Nepl8 (GeneID 34983) [DRSC02759], the record shows replicate 1, z-score of dpERK with insulin 0.65.
For shps (GeneID 42892) [DRSC14614], the values are replicate 1, z-score of dpERK with insulin 0.26.
With knock-down of CG34124 (GeneID 4379887) [DRSC00849] the results were replicate 1, z-score of dpERK with insulin 0.43.
Nf-YA (GeneID 39091) [DRSC10385] gave replicate 1, z-score of dpERK with insulin -0.89.
Depletion of Arf4 (GeneID 43823) [DRSC17195] resulted in: replicate 1, z-score of dpERK with insulin -0.36.
For CG11699 (GeneID 32101) [DRSC19419], the values are replicate 1, z-score of dpERK with insulin 0.58.

A stretch of the results above:
Nepl8 (GeneID 34983) [DRSC02759] | replicate 1, z-score of dpERK with insulin = 0.65
shps (GeneID 42892) [DRSC14614] | replicate 1, z-score of dpERK with insulin = 0.26

The list goes on:
CG8089 (GeneID 36679) [DRSC07074] scored replicate 1, z-score of dpERK with insulin -0.28.
Depletion of alpha-Est4aPsi (GeneID 3772290) [DRSC12473] gave: replicate 1, z-score of dpERK with insulin 0.3.
cGlr2 (GeneID 246606) [DRSC04017] showed replicate 1, z-score of dpERK with insulin 0.
After knock-down of PPO2 (GeneID 35910) [DRSC07102] the results were replicate 1, z-score of dpERK with insulin 0.35.
For CG14357 (GeneID 41716) [DRSC14820] the deposit lists replicate 1, z-score of dpERK with insulin -1.13.
Against CG4615 (GeneID 31656) [DRSC17491], the values are replicate 1, z-score of dpERK with insulin -0.11.
CG4615 (GeneID 31656) [DRSC18376] gave replicate 1, z-score of dpERK with insulin -0.44.
Depletion of CAH6 (GeneID 43701) [DRSC15505] came out at: replicate 1, z-score of dpERK with insulin 0.5.
For Dlc90F (GeneID 42199) [DRSC16649] the deposit lists replicate 1, z-score of dpERK with insulin -0.16.
With knock-down of Gar1 (GeneID 37397) [DRSC04441], the record shows replicate 1, z-score of dpERK with insulin 0.56.
Depletion of Eig71Ed (GeneID 39704) [DRSC11151] resulted in: replicate 1, z-score of dpERK with insulin 0.91.
Against Acsf3 (GeneID 31668) [DRSC18146], the values are replicate 1, z-score of dpERK with insulin -0.71.
